Assay: Total free carotenoid content after saponification of paprika powder, residue/GML and filtrate/GML (UPLC, UV 470 nm)
Details: mean±standard deviation (n=3)

Which results are given for `CC1=C(/C=C/C(C)=C/C=C/C(C)=C/C=C/C=C(C)/C=C/C=C(C)/C=C/C(=O)[C@]2(C)C[C@@H](O)CC2(C)C)C(C)(C)C[C@H](O)C1` [Capsanthin]?
total free carotenoid content after saponification, Paprika filtrate/GML (n = 3): 233.2 ± 43.3 µg/g; total free carotenoid content after saponification, Paprika powder: 456.6 ± 87.8 µg/g; total free carotenoid content after saponification, Paprika residue/GML (n = 3): 156.7 ± 43 µg/g

Which results are given for `CC1=C(/C=C/C(C)=C/C=C/C(C)=C/C=C/C=C(C)/C=C/C=C(C)/C=C/C2=C(C)C[C@@H](O)CC2(C)C)C(C)(C)C[C@H](O)C1` [Zeaxanthin]?
total free carotenoid content after saponification, Paprika filtrate/GML (n = 3): 75.2 ± 12.3 µg/g; total free carotenoid content after saponification, Paprika powder: 79.6 ± 13.1 µg/g; total free carotenoid content after saponification, Paprika residue/GML (n = 3): 37.5 ± 4.0 µg/g

With `CC1=C(/C=C/C(C)=C/C=C/C(C)=C/C=C/C=C(C)/C=C/C=C(C)/C=C/C2=C(C)CCCC2(C)C)C(C)(C)CCC1` [β-Carotene] as the molecule, how does the “total free carotenoid content after saponification, Paprika filtrate/GML (n = 3)” value read?
The value was 85.2 ± 12.4 µg/g.

What about the “total free carotenoid content after saponification, Paprika powder” value (shortened to “total free carotenoid content … Paprika powder”) of the same molecule?
The value was 69.6 ± 6.7 µg/g.

And the “total free carotenoid content after saponification, Paprika residue/GML (n = 3)” value?
Its value is 37.5 ± 5.8 µg/g.

Which results are given for `CC1=C(/C=C/C(C)=C/C=C/C(C)=C/C=C/C=C(C)/C=C/C=C(C)/C=C/[C@@]23O[C@]2(C)C[C@@H](O)CC3(C)C)C(C)(C)C[C@H](O)C1` [Antheraxanthin]?
total free carotenoid content after saponification, Paprika filtrate/GML (n = 3): 85.5 ± 16.6 µg/g; total free carotenoid content after saponification, Paprika powder: 96.8 ± 15.8 µg/g; total free carotenoid content after saponification, Paprika residue/GML (n = 3): 60.9 ± 19.8 µg/g

For `CC(/C=C/C=C(C)/C=C/C(=O)[C@]1(C)C[C@@H](O)CC1(C)C)=C\C=C\C=C(C)\C=C\C=C(C)\C=C\C(=O)[C@]1(C)C[C@@H](O)CC1(C)C` [Capsorubin], which “total free carotenoid content after saponification, Paprika filtrate/GML (n = 3)” value is on record?
The value was 8.2 ± 2.1 µg/g.

What about the “total free carotenoid content … Paprika powder” value of the same molecule?
The value was 91.7 ± 23.6 µg/g.

And the “total free carotenoid content after saponification, Paprika residue/GML (n = 3)” value?
Its value is 15.8 ± 4.2 µg/g.

For `CC1=C(/C=C/C(C)=C/C=C/C(C)=C/C=C/C=C(C)/C=C/C=C(C)/C=C/C2=C(C)C[C@@H](O)CC2(C)C)C(C)(C)CCC1` [β-Cryptoxanthin], which “total free carotenoid content after saponification, Paprika filtrate/GML (n = 3)” value is on record?
The value was 34.6 ± 4.9 µg/g.

What about the “total free carotenoid content … Paprika powder” value of the same molecule?
The value was 27.4 ± 6.1 µg/g.

And the “total free carotenoid content after saponification, Paprika residue/GML (n = 3)” value?
The value was 16 ± 1.2 µg/g.

Same assay, conditions: paprika powder

For `CC1=C(/C=C/C(C)=C/C=C/C(C)=C/C=C/C=C(C)/C=C/C=C(C)/C=C/C(=O)[C@]2(C)C[C@@H](O)CC2(C)C)C(C)(C)C[C@H](O)C1` [Capsanthin], which “share of the total carotenoids identified in paprika powder” value (“share” below) is on record?
Its value is ~56%.

Which “share” value does the source give for `CC1=C(/C=C/C(C)=C/C=C/C(C)=C/C=C/C=C(C)/C=C/C=C(C)/C=C/C2=C(C)C[C@@H](O)CC2(C)C)C(C)(C)C[C@H](O)C1` [Zeaxanthin] here?
Its value is 9.7%.

For `CC1=C(/C=C/C(C)=C/C=C/C(C)=C/C=C/C=C(C)/C=C/C=C(C)/C=C/C2=C(C)CCCC2(C)C)C(C)(C)CCC1` [β-Carotene], which “share” value is on record?
Its value is 8.5%.

For `CC1=C(/C=C/C(C)=C/C=C/C(C)=C/C=C/C=C(C)/C=C/C=C(C)/C=C/[C@@]23O[C@]2(C)C[C@@H](O)CC3(C)C)C(C)(C)C[C@H](O)C1` [Antheraxanthin], which “share” value is on record?
The value was 11.8%.

With `CC(/C=C/C=C(C)/C=C/C(=O)[C@]1(C)C[C@@H](O)CC1(C)C)=C\C=C\C=C(C)\C=C\C=C(C)\C=C\C(=O)[C@]1(C)C[C@@H](O)CC1(C)C` [Capsorubin] as the molecule, how does the “share” value read?
Its value is 11.1%.

Which “share” value does the source give for `CC1=C(/C=C/C(C)=C/C=C/C(C)=C/C=C/C=C(C)/C=C/C=C(C)/C=C/C2=C(C)C[C@@H](O)CC2(C)C)C(C)(C)CCC1` [β-Cryptoxanthin] here?
Its value is 3.3%.

Same assay, conditions: paprika, glycerol monolaurate filtrate versus powder

Which “extracted and transferred in the filtrate” value does the source give for `CC1=C(/C=C/C(C)=C/C=C/C(C)=C/C=C/C=C(C)/C=C/C=C(C)/C=C/C(=O)[C@]2(C)C[C@@H](O)CC2(C)C)C(C)(C)C[C@H](O)C1` [Capsanthin] here?
Its value is 51%.

Assay: Qualitative GC-MS analysis of aromatic compounds transferred from a rosemary vegetal matrix into the filtrate, versus hexane extract
Design: key: The “x” represents the qualitative presence of the compound in the extract; —: the “−” represents its absence
Details: Table 5, filtrate (n=3)

With `CC1=CC=C(C(C)C)CC1` [α terpinene] as the molecule, how does the “qualitative presence in Extract according to process of invention” value (“qualitative presence” below) read?
Its value is “—”.

Which “qualitative presence” value does the source give for `C=C(C)[C@H]1CC=C(C)CC1` [limonene] here?
The value was “—”.

With `Cc1ccc(C(C)C)cc1O` [carvacrol] as the molecule, how does the “qualitative presence” value read?
The value was “—”.

With `C=C1C2CCC(C2)C1(C)C` (stereo not shown) [camphene] as the molecule, how does the “qualitative presence” value read?
The value was “—”.

Which “qualitative presence” value does the source give for `C=C(C)c1ccc(C)cc1` [p-cymenene] here?
Its value is “—”.

Which “qualitative presence” value does the source give for `C=CC(C)(CCC=C(C)C)OC(=O)C(C)C` (stereo not shown) [linalool isobutanoate] here?
The value was “—”.

Which “qualitative presence” value does the source give for `CC1=CC[C@H](CC=O)C1(C)C` [α-campholenal] here?
The value was “—”.

With `C/C1=C\CC(C)(C)/C=C/C/C(CO)=C/CC1` [14-hydroxy-α-humulene] as the molecule, how does the “qualitative presence” value read?
The value was “—”.

For `C=C1CCC2(C(C)C)CC12` (stereo not shown) [sabinene], which “qualitative presence” value is on record?
The value was “—”.

Which “qualitative presence” value does the source give for `C=CC(=C)CCC=C(C)C` [myrcene] here?
The value was “—”.

For `CC1=CCC2C(C1)C2(C)C` (stereo not shown) [3-carene], which “qualitative presence” value is on record?
Its value is “—”.

Which “qualitative presence” value does the source give for `CC1=CC2C(CC1)C(C)=CCC2C(C)C` (stereo not drawn) [α-amorphene] here?
Its value is “—”.

Which “qualitative presence” value does the source give for `C=C(C)C1CC=C(C)C(=O)C1` (stereo not shown) [carvone] here?
Its value is “—”.

For y-terpinene, which “qualitative presence” value is on record?
The value was “—”.

With `Cc1ccc(C(C)C)cc1` [p-cymene] as the molecule, how does the “qualitative presence” value read?
Its value is “—”.

For `C=CC(C)(CCC=C(C)C)OC(C)=O` (stereo not shown) [linalyl acetate], which “qualitative presence” value is on record?
Its value is “—”.

Which “qualitative presence” value does the source give for `C=C(C)[C@@H]1CC=C(C)[C@@H](O)C1` (relative stereo) [trans-carveol] here?
Its value is “—”.

For δ-alacorene, which “qualitative presence” value is on record?
Its value is “—”.

With `C/C=C\c1ccc(OC(C)=O)c(OC)c1` [Z-isoeugenol acetate] as the molecule, how does the “qualitative presence” value read?
Its value is “—”.

Which “qualitative presence” value does the source give for `Cc1cccc(C)c1O` [2,6-dimethylphenol] here?
The value was “—”.

For `C=C1CCC2CC1C2(C)C` (stereo not shown) [6-pinene], which “qualitative presence” value is on record?
Its value is “—”.

With `CC1=C[C@H]2C(=C(C)CC[C@H]2C(C)C)CC1` [δ-amorphene] as the molecule, how does the “qualitative presence” value read?
Its value is “—”.

For `C=C1C2CCC(C2)C1(C)C.O` (stereo not shown) [camphene hydrate], which “qualitative presence” value is on record?
The value was “—”.

Which “qualitative presence” value does the source give for `C=C1CCC(C(C)(C)O)CC1` [δ-terpineol] here?
Its value is “—”.

For 6-isocomene, which “qualitative presence” value is on record?
Its value is “—”.

For `CC1=CCC(=C(C)C)CC1` [terpinolene], which “qualitative presence” value is on record?
Its value is “—”.

Which “qualitative presence” value does the source give for `CC1=C[C@@H]2C(=C(C)CC[C@H]2C(C)C)CC1` [δ-cadinene] here?
The value was “—”.

For `C=C1CC[C@H](C(C)C)[C@H]2C=C(C)CC[C@H]12` [y-cadinene], which “qualitative presence” value is on record?
The value was “—”.

With `CC1=CCC2C(=O)C1C2(C)C` (stereo not shown) [chrysanthenone] as the molecule, how does the “qualitative presence” value read?
Its value is “—”.

With `Cc1ccc(C(C)C)c(O)c1` [thymol] as the molecule, how does the “qualitative presence” value read?
Its value is “—”.

Assay: as above
Design: key: The “x” represents the qualitative presence of the compound in the extract in question; —: the “−” represents its absence
Details: Table 5, filtrate (n=3)
Remark: another data set of the same source

With `C=C(C)[C@@H]1CCC(=C)[C@@H](O)C1` (relative stereo) [trans-p-mentha-1(7),8-dien-2-ol] as the molecule, how does the “qualitative presence” value read?
Its value is “x”.

For `CC1(C)C2CCC1(C)C(O)C2` (stereo not shown) [borneol], which “qualitative presence” value is on record?
Its value is “x”.

For `CCCCCCCCCCCCCCCC(=O)O` [acide hexadecanoique], which “qualitative presence” value is on record?
The value was “x”.

With `CC1=CCC(C(C)(C)O)CC1` (stereo not drawn) [α-terpineol] as the molecule, how does the “qualitative presence” value read?
Its value is “x”.

With `CC1=CC(=O)[C@@H]2C[C@H]1C2(C)C` [verbenone] as the molecule, how does the “qualitative presence” value read?
Its value is “x”.

With `Cc1ccc2c(c1)[C@H](C(C)C)CC[C@@H]2C` (relative stereo) [cis-calamenene] as the molecule, how does the “qualitative presence” value read?
The value was “x”.

Which “qualitative presence” value does the source give for `C=CCc1ccc(O)c(OC)c1` [eugenol] here?
The value was “x”.

For `C=C1CC/C=C(/CO)CC[C@@H]2[C@H]1CC2(C)C` [14-hydroxy-9-epi-(E)-caryophyllene], which “qualitative presence” value is on record?
Its value is “x”.

With `CC1=CC[C@@H]2[C@H]3[C@H](C(C)C)CC[C@]2(C)[C@@H]13` [α-ylangene] as the molecule, how does the “qualitative presence” value read?
The value was “x”.

Which “qualitative presence” value does the source give for `CC(=O)OC1CC2CCC1(C)C2(C)C` (stereo not shown) [bornyl acetate] here?
The value was “x”.

With `CC12CCC(CC1)C(C)(C)O2` [1,8 cineole] as the molecule, how does the “qualitative presence” value read?
The value was “x”.

For `CC1=CCC2CC1C2(C)C` (stereo not drawn) [α-pinene], which “qualitative presence” value is on record?
Its value is “x”.

With `C/C1=C\CC/C(C)=C/CC(C)(C)/C=C/C1` [α-caryophyllene] as the molecule, how does the “qualitative presence” value read?
Its value is “x”.

With `C=CC(C)(O)CCC=C(C)C` (stereo not shown) [linalool] as the molecule, how does the “qualitative presence” value read?
The value was “x”.

Which “qualitative presence” value does the source give for `CC1=CCC(C(C)C)c2cc(C)ccc21` (stereo not drawn) [α-calacorene] here?
The value was “x”.

For `CC12CCC(CC1=O)C2(C)C` (stereo not shown) [camphre], which “qualitative presence” value is on record?
Its value is “x”.

With `CC1=CC(=O)C(=C(C)C)CC1` [piperitenone] as the molecule, how does the “qualitative presence” value read?
The value was “x”.

Which “qualitative presence” value does the source give for `CC1=CCC(O)(C(C)C)CC1` (stereo not shown) [terpinen-4-ol] here?
The value was “x”.
